# PubChem BioAssay AID504834 (National Center for Advancing Translational Sciences (NCATS), 2011)
# Out of some 320,000 compounds screened, about 22,000 (6.9%) were called active. The inconclusive results got no clear call from the source; some entries with a clear call stand among them for comparison. The call rests on the fitted dose curve; in most records, active means well fitted inhibition curve with a large enough effect; inconclusive means small, poorly fitted or top-dose-only effect, or another doubt; inactive means no such curve, though single readings can be large or run the other way. Potencies beside an inconclusive call are fits to weak or partial responses and may not hold up.
# Experiment: Primary qHTS for delayed death inhibitors of the malarial parasite plastid, 96 hour incubation
# Details: P. falciparum luciferase reporter growth; series mostly up to 28.7 µM
# Summary of the method: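 Cell-based qHTS: luciferase-tagged P. falciparum in erythrocytes (2% hematocrit, 0.05% parasitemia final) incubated with compounds for 96 hours, 37 C, 5% CO2; luciferase detection reagent then added and luminescence measured.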
# Potency means the concentration at half of the fitted maximal effect.
row,SMILES,Potency
1,Cc1ccc(NCc2ccccc2OCc2ccccc2F)cc1,"inconclusive: 18.5 µM [inhibitor, single point]"
2,COc1cccc(NC(=O)Nc2ccc3c(c2)CCC3)c1,"inconclusive: 16.5 µM [inhibitor, single point]"
3,CC(C)c1ccc2c(c1)c(SC(C)(C)C)c(CC(C)(C)C(=O)O)n2Cc1ccc(Cl)cc1,active: 7.38 µM
4,Cc1nn(-c2ccccc2)c(Cl)c1/C=N/NC(=O)c1ccccc1NS(=O)(=O)c1cccs1,"inconclusive: 18.5 µM [inhibitor, single point]"
5,CCCCOc1ccc(S(=O)(=O)Nc2ccc(NC(C)=O)cc2)cc1,"inconclusive: 0.0828 µM [inhibitor, full curve, poor fit]"
6,Clc1ccc(/C=N/c2c(-c3ccc(Cl)cc3)nc3n2CCS3)cc1,"inconclusive: 11.7 µM [inhibitor, single point]"
7,Cc1ccc(C=Nc2ccccc2C#N)s1,inactive
8,COc1ccc(C(=O)C2CCCN(C(=O)c3cc(C)on3)C2)cc1F (stereo not given),"inconclusive: 0.586 µM [inhibitor, partial curve, poor fit]"
9,COc1ccc(S(=O)(=O)Nc2cc(OC)c(NC(=O)c3ccco3)cc2OC)cc1,"inconclusive: 2.62 µM [inhibitor, full curve, poor fit]"
10,COc1ccc(OC)c(C2C3=C(COC3=O)Nc3cc4c(cc32)OCO4)c1 (stereo not given),"inconclusive: 18.5 µM [inhibitor, single point]"
11,CC(C)NC(=S)N/N=C/c1c[nH]c2ccccc12,inactive
12,CCN(CC)Cc1c(C(=O)N/N=C(\C)c2ccncc2)nnn1-c1nonc1N,"inconclusive: 18.5 µM [inhibitor, single point]"
13,Clc1ccc(CSc2ncn(-c3ccccc3)n2)cc1,inactive
14,COC(=O)[C@@H]1C[C@H]1[C@@H](NC(=O)c1ccccc1)c1ccccc1,inactive
15,CN1CCN(c2ccc(Cl)cc2N)CC1,inactive
16,CN1CCCN(S(=O)(=O)c2ccc(O)c(C(=O)O)c2)CC1,inactive
17,CCn1c(CC(=O)Nc2ccc(C)cc2)nnc1SCC(=O)N1CCOCC1,inactive
18,Cc1c(-c2ccccc2)sc(Br)c1C(=O)N1CCOCC1,"inconclusive: 18.5 µM [inhibitor, single point]"
19,C[C@@H](CCc1ccccc1)NC[C@H](O)c1ccc(O)c(C(N)=O)c1,"inconclusive: 19 µM [inhibitor, partial curve, poor fit]"
20,Cn1ccnc1SCC(=O)Nc1ccc(Br)cc1C(F)(F)F,"inconclusive: 18.5 µM [inhibitor, single point]"

# Given with bars between the fields: part of the list above.
row | SMILES | Potency
10 | COc1ccc(OC)c(C2C3=C(COC3=O)Nc3cc4c(cc32)OCO4)c1 (stereo not given) | inconclusive: 18.5 µM [inhibitor, single point]
11 | CC(C)NC(=S)N/N=C/c1c[nH]c2ccccc12 | inactive
12 | CCN(CC)Cc1c(C(=O)N/N=C(\C)c2ccncc2)nnn1-c1nonc1N | inconclusive: 18.5 µM [inhibitor, single point]
13 | Clc1ccc(CSc2ncn(-c3ccccc3)n2)cc1 | inactive
14 | COC(=O)[C@@H]1C[C@H]1[C@@H](NC(=O)c1ccccc1)c1ccccc1 | inactive
